Data as given in PubChem BioAssay AID686943 (Drosophila RNAi Screening Center, 2013)

Screen: 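Search across the genome for regulators of signalling from receptor tyrosine kinase to ERK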 (primary screen)
Cell system: Drosophila S2R+ haemocyte-like cells expressing YFP-tagged ERK (Rolled)
Reagent: long dsRNA against Drosophila genes
Conditions: insulin stimulation versus unstimulated cells; dose and duration not given
Read-out: 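Per-plate z-scores of phospho-ERK immunostaining normalised to YFP-tagged ERK, measured with and without insulin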
Scale: replicate 1, z-score of dpERK with insulin and replicate 2, z-score of dpERK with insulin: higher = more active ERK per ERK-YFP after insulin
In all, the deposit lists about 23,000 reagents; this is a random part of those that have a named target and a result. 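Extra replicates exist only for a retested subset of genes; insulin dose and duration not given; both raised and lowered dpERK matter.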 Further read-outs or replicates are left out here. No sequences are given here. The record does not give: the amount of reagent, the time to read-out.

CG32371 [DRSC22209] → replicate 1, z-score of dpERK with insulin: -0.01; replicate 2, z-score of dpERK with insulin: 0.88
CG7488 [DRSC16250] → replicate 1, z-score of dpERK with insulin: 1.1; replicate 2, z-score of dpERK with insulin: 0.78
CG17221 [DRSC00487] → replicate 1, z-score of dpERK with insulin: -0.36; replicate 2, z-score of dpERK with insulin: 0.41
TfIIB [DRSC03454] → replicate 1, z-score of dpERK with insulin: 2.28; replicate 2, z-score of dpERK with insulin: 3.09
Acox3 [DRSC03251] → replicate 1, z-score of dpERK with insulin: 0.44; replicate 2, z-score of dpERK with insulin: -0.19
CG13721 [DRSC08330] → replicate 1, z-score of dpERK with insulin: 0.06; replicate 2, z-score of dpERK with insulin: 0.43
mora [DRSC16594] → replicate 1, z-score of dpERK with insulin: 0.59; replicate 2, z-score of dpERK with insulin: 0.24
cyp33 [DRSC07600] → replicate 1, z-score of dpERK with insulin: 0.47; replicate 2, z-score of dpERK with insulin: -0.23
santa-maria [DRSC00994] → replicate 1, z-score of dpERK with insulin: -0.43; replicate 2, z-score of dpERK with insulin: -0.49
santa-maria [DRSC02180] → replicate 1, z-score of dpERK with insulin: 0.21; replicate 2, z-score of dpERK with insulin: -0.39
RpL19 [DRSC04649] → replicate 1, z-score of dpERK with insulin: -3.2; replicate 2, z-score of dpERK with insulin: -0.08
Jon99Cii [DRSC16858] → replicate 1, z-score of dpERK with insulin: 1.81; replicate 2, z-score of dpERK with insulin: -0.08
Jon99Cii [DRSC22574] → replicate 1, z-score of dpERK with insulin: -0.12; replicate 2, z-score of dpERK with insulin: 0.17

2 successive reagents from above:
mora [DRSC16594] → replicate 1, z-score of dpERK with insulin: 0.59; replicate 2, z-score of dpERK with insulin: 0.24
cyp33 [DRSC07600] → replicate 1, z-score of dpERK with insulin: 0.47; replicate 2, z-score of dpERK with insulin: -0.23
